From publication PMC7815709
No constants are given. Whether binding was seen depends on the method and setting. In cells and extracts the contact can be indirect. Some entries that bind do so weakly or less than the wild type.

Sequences of proteins named here, by UniProt entry; tags and fusion partners are left off.
UniProt Q6PDQ2: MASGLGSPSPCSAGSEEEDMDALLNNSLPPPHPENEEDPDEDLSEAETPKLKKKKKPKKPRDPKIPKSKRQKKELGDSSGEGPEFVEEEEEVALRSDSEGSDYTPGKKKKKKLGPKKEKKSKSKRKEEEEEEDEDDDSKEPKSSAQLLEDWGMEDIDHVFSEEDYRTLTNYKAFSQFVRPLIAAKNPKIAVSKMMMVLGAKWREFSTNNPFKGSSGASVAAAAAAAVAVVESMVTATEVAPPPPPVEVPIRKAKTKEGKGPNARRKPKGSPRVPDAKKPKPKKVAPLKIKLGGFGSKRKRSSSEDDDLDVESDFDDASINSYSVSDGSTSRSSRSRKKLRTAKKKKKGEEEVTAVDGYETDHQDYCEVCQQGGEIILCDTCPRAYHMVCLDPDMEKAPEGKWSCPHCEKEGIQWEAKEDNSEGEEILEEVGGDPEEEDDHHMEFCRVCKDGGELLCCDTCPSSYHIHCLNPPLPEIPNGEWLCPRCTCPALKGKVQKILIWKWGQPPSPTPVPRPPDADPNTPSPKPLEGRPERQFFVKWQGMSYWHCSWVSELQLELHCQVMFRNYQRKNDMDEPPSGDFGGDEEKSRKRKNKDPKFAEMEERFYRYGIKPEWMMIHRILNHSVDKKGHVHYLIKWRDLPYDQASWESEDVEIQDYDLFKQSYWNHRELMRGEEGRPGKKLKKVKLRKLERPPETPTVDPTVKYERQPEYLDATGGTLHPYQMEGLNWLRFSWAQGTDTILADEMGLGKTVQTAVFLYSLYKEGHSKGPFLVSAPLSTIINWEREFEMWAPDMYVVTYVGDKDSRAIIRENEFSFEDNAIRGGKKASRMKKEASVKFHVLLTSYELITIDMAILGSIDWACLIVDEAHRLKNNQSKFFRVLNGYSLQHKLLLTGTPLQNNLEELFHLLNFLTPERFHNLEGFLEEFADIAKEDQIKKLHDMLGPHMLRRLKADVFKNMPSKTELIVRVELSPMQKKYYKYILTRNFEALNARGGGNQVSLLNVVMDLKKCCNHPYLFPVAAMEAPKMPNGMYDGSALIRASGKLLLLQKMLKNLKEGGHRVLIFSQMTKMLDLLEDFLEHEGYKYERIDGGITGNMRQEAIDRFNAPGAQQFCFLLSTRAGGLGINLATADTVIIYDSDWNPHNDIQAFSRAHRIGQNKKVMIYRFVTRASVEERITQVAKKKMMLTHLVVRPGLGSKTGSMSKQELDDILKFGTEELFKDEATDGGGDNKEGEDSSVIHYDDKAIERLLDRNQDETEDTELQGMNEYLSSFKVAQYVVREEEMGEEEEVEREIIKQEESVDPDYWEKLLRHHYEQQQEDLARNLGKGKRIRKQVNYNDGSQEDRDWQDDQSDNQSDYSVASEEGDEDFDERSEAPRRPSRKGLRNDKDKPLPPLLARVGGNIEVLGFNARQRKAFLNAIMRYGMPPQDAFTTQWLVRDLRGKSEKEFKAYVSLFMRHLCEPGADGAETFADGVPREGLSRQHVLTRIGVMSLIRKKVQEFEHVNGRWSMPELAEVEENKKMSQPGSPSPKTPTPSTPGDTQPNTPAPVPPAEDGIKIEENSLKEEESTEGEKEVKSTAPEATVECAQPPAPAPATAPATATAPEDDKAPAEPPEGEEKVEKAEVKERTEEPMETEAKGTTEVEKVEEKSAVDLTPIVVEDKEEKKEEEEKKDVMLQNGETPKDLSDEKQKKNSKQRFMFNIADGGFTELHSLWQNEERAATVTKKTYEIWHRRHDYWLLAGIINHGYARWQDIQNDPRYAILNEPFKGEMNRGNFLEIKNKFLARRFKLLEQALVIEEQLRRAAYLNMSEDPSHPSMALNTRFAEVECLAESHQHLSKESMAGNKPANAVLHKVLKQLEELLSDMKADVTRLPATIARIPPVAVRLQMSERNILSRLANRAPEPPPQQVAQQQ
UniProt P70288: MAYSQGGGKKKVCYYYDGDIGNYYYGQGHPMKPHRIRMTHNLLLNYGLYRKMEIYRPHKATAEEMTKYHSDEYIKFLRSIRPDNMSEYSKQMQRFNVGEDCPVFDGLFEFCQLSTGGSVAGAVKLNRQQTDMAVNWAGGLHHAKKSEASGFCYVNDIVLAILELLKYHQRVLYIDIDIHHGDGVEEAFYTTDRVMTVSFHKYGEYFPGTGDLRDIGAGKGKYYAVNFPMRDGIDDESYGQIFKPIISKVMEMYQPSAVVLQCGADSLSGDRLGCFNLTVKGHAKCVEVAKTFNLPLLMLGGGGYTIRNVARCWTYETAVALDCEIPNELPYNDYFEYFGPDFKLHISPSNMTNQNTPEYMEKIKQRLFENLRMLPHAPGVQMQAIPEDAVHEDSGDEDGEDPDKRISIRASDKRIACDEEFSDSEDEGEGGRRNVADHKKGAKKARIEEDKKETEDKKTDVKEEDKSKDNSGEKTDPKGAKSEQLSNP
UniProt O09106: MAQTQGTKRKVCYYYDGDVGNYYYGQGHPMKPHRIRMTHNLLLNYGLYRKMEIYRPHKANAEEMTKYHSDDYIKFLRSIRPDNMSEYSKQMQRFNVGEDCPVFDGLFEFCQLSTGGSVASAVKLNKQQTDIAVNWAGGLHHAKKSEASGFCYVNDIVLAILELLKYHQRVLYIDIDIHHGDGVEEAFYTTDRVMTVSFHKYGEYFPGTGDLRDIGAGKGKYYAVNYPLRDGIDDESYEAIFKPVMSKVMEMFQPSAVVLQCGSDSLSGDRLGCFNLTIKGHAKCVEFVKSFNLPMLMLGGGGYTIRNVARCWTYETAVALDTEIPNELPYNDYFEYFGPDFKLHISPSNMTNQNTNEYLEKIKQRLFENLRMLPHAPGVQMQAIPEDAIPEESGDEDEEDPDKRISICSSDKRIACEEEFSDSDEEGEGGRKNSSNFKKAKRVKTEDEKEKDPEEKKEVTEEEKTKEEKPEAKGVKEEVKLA

Biological target: CHD4 (mouse (endogenous in choroid plexus)) (UniProt Q6PDQ2)
Assay: co-IP; endogenous proteins; choroid plexus tissue (pooled P0 pups and adults) homogenized in NET buffer (150 mM NaCl, 10 mM Tris 8.0, 5 mM EDTA, 10% glycerol, 2% Triton X-100); precleared lysate incubated with CHD4 antibody overnight at 4 °C, Protein G agarose; immunoblot

binding	Substance
binds	HDAC2 (from UniProt P70288 1-488)
binds	HDAC1 (from UniProt O09106 1-482)
